Drawing on publication PMC5309696, this text covers binding for one substance.

Sequences of proteins named here, by UniProt entry; tags and fusion partners are left off.
UniProt O08586: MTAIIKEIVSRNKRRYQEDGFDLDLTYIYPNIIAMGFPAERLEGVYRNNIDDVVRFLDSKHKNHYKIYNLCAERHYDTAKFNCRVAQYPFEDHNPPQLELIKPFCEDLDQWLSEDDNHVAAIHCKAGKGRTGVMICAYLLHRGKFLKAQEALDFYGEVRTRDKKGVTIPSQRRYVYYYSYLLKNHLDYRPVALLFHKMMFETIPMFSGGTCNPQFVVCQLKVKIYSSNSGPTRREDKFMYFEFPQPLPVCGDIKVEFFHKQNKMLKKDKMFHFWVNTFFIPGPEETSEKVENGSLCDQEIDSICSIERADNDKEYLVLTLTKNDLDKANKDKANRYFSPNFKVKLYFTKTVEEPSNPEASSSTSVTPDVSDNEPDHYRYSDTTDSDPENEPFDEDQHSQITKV

No constants are given. Whether binding was seen depends on the method and setting. In cells and extracts the contact can be indirect. Some binding calls cover weakened binding; strength is not graded here.

This test concerns the target T1, DJ-1 (endogenous, brown adipose tissue) (mouse (endogenous in BAT)) (UniProt Q99LX0).
T1 sequence: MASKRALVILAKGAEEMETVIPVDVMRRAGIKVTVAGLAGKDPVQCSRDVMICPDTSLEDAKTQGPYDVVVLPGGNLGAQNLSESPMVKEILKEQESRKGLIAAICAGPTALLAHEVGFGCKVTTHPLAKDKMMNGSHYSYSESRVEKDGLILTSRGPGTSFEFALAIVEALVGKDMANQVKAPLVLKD
The experiment in a line: co-IP; lysates of BAT immunoprecipitated with DJ-1 antibody, immunoblotted with PTEN or Mib2 antibody; IP buffer 50 mM Hepes pH 7.9, 150 mM NaCl, 1% Triton-100, 4 °C.

As for “PTEN (endogenous) (from UniProt O08586 1-403)”, the binding result was “binds”.
